Taken from: PubChem BioAssay AID1259308 (NCATS, 2017)
The whole screen tested about 59,000 reagents; shown is a part drawn at random. In the full data, about 1,510 (2.6%) were called active. 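Calls use total luciferase alone and ignore viability, so some active siRNAs may act by altering cell number.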 Entries without a mark were called inactive. The numbers tell different reagents against one gene apart. Not all columns of the deposit are shown.

Assay: 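Candidate targets for better recombinant protein yield in mammalian cells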 (primary screen)
Cells: human HEK293 embryonic kidney cells stably expressing firefly luciferase (HEK-CMV-Luc2-Hygro)
Reagent: single siRNA against human genes, 0.8 pmol siRNA per well
Time to read-out: 72 h
Read-out: 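Luciferase light (ONE-Glo) measured on one replicate plate set and viability (CellTiter-Glo) on the other, scaled to a negative control siRNA, with robust z-scores and luciferase per cell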
Scale: total luciferase, z-score: higher = more reporter protein produced
Hit rule: 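Active when the median/MAD z-score for overall luciferase is greater than 3; a gene was taken forward for validation with new siRNAs if at least two of its three siRNAs passed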
Meaning of the calls: active = raised luciferase; inactive = no rise

DBH (dopamine beta-hydroxylase) #1
- total luciferase, z-score: -1.25

DBH (dopamine beta-hydroxylase) #2
- total luciferase, z-score: -0.527

DBH (dopamine beta-hydroxylase) #3
- total luciferase, z-score: -0.578

FAM90A3 (family with sequence similarity 90 member A3) #1
- total luciferase, z-score: 0.609

FAM90A3 (family with sequence similarity 90 member A3) #2
- total luciferase, z-score: -1.08

FAM90A3 (family with sequence similarity 90 member A3) #3
- total luciferase, z-score: -0.189

STAT1 (signal transducer and activator of transcription 1) #1
- total luciferase, z-score: -0.395

STAT1 (signal transducer and activator of transcription 1) #2
- total luciferase, z-score: 0.0202

STAT1 (signal transducer and activator of transcription 1) #3
- total luciferase, z-score: 0.158

LINC00693 (long independently transcribed non-coding RNA 693) #1
- total luciferase, z-score: -0.402

LINC00693 (long independently transcribed non-coding RNA 693) #2
- total luciferase, z-score: 1.36

LINC00693 (long independently transcribed non-coding RNA 693) #3
- total luciferase, z-score: -0.52
